# Experimental data reported in the supplement of paper PMC3334620.
# In all, about 33,000 sequences were measured (“E-score (-0.5 to 0.5)”: median about -0.015, highest 2% from about 0.3 on). The list shows a part of the results.
# Target: T1, Abf1 (UniProt P14164)
# T1 sequence: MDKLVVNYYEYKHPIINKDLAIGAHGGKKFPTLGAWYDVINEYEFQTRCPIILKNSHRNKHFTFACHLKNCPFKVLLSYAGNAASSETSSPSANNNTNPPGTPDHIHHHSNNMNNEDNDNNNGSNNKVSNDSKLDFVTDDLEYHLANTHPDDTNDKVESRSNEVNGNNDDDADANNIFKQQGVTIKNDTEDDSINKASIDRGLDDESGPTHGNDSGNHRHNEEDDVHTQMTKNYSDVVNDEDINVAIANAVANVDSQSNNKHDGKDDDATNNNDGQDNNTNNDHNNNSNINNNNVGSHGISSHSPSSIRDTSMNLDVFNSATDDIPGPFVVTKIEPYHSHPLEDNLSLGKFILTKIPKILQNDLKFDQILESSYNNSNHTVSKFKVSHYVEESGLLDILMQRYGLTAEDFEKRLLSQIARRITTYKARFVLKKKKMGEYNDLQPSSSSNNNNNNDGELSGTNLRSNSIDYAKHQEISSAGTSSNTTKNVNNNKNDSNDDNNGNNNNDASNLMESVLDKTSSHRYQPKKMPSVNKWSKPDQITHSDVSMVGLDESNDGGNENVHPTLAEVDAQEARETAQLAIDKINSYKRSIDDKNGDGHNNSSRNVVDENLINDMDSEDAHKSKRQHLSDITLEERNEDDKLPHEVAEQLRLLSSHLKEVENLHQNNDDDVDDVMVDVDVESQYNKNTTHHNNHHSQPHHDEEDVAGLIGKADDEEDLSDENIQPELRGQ
# Experiment: PBM E-score (8-mer binding enrichment) (E-score (-0.5 to 0.5)); higher = stronger / more preferred TF binding
# Conditions: protein concentration: 200 nM; construct: GST-full length
# Method in brief: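 Using PURExpress in vitro transcription/translation, GST-tagged yeast transcription factors were made in full-length or DNA-binding-domain form. These were applied at about 100-200 nM to double-stranded universal all-10-mer Agilent arrays, and bound protein was detected with fluorescent anti-GST. Scans were normalised with masliner before the Universal PBM Analysis Suite assigned E-scores to ungapped eight-base words pooled with their reverse complements.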
row,Sequence,PBM E-score
1,ATCATGGA,-0.0809
2,GCCGCGGC,-0.0383
3,AACGCACA,0.0384
4,CATAGCGG,-0.167
5,ATTTCCTC,0.0443
6,AACTCGTA,0.255
7,CGCTCTGC,-0.193
8,CGGGCCCC,-0.255
9,GGTGACAC,0.238
10,AGGCGCCA,-0.0495
11,CCGAGGGA,-0.252
12,CCAGACCC,-0.235
13,ACCAGATG,-0.00648
14,CAGATTCG,-0.101
15,TCGCACGA,0.317
16,GGGACTCA,-0.301
17,TCAAGACA,0.0152
18,AGTTTGGC,0.035
19,AATAAAAG,-0.012
20,CCAAGTCA,-0.0923
21,CCTGCTCC,-0.00159
22,AATCATGA,0.274
23,AAAAACTT,-0.051
24,CAAACAGG,0.107
25,CAGCGGGC,-0.13

row,Sequence,PBM E-score
1,CTCGAAAC,0.163
2,AATACAAG,0.00093
3,CAGCTCCA,-0.238
4,CCGCCCCC,-0.448
5,AAGCAAAA,0.0973
6,CACACGGG,0.0515
7,GCTTCATA,-0.105
8,CAAATACA,0.0656
9,TAGAGAAA,-0.0221
10,GCGATAGC,0.013
11,CTAATTTC,0.174
12,CTGTGGGA,-0.215
13,AAGCAGGC,-0.303
14,CTGTTCCA,-0.114
15,GACTGTTA,0.0803
16,TCTGCACA,-0.0362
17,CCGAGTTA,0.0322
18,GACGGCCC,0.072
19,ACCCGGCT,-0.0353
20,TCGGCACA,-0.116
21,ATCATCCG,0.276
22,AGGAGTCC,-0.293
23,ATGGGTGC,-0.175
24,CTTCGTGA,0.317
25,AGCACACA,-0.119

row,Sequence,PBM E-score
1,CTGCACAA,-0.0813
2,CAACCGAC,0.19
3,AAACACTC,-0.0792
4,AGGATCTC,-0.0704
5,GTCTCCCA,-0.187
6,ACGCTCTG,-0.0343
7,CCACCATA,-0.177
8,ATTTGATG,0.023
9,ACGTTAAC,0.19
10,CGAAGATA,0.19
11,ACATTCAC,-0.0436
12,CCTGCGCG,-0.00703
13,CCGCCTCA,-0.15
14,CATCCTTA,0.0417
15,AGAAGGGG,-0.319
16,GGCCGTCA,0.0311
17,GAAATCTC,0.00946
18,CTCTTGGA,-0.0334
19,ATTGACTA,-0.0394
20,CCAGGGAG,-0.228
21,CCTTCTCG,-0.245
22,CAGAGAGG,-0.254
23,GGAGTGAC,0.333
24,GTGCACGA,0.187
25,ATGATATG,0.367

row,Sequence,PBM E-score
1,CACCGCTC,-0.0442
2,ACTTTGAA,0.00486
3,GTCGAACA,0.166
4,CAGTAGTC,-0.00363
5,ACTTAGCG,0.172
6,AGGCAAAC,-0.23
7,ATAAGGGC,-0.0744
8,ATCACCAC,0.356
9,AGATGAGA,0.138
10,CTGATATC,0.0641
11,AATCTAAA,-0.0431
12,ACAGAACT,0.118
13,AACGATGG,-0.0611
14,ACCCTGAT,-0.059
15,ATTTGACC,0.0706
16,ACACAGTA,0.0919
17,AAGTCTAG,-0.134
18,ACCATGAC,0.15
19,GCGGAAAA,-0.0831
20,AAGACAAC,0.0616
21,GCAAGGAC,-0.0807
22,GCACCTGA,0.137
23,CGTACGGC,0.396
24,ATATAACG,0.249
25,CAATATAA,0.205

# Given with bars between the fields: entries from further up
row | Sequence | PBM E-score
6 | AGGCAAAC | -0.23
7 | ATAAGGGC | -0.0744
8 | ATCACCAC | 0.356
9 | AGATGAGA | 0.138
10 | CTGATATC | 0.0641
11 | AATCTAAA | -0.0431
12 | ACAGAACT | 0.118

# (cont.)

row,Sequence,PBM E-score
1,TGCGAGCA,-0.0529
2,CGTGTAGA,0.212
3,CACGTCAC,0.368
4,GGGATCCA,-0.048
5,CCCGAGAA,-0.106
6,ATTGAACA,0.0816
7,ATACCCAG,-0.179
8,AGGTGACG,0.0988
9,AAGAGTCG,-0.025
10,GGTGACTA,0.149
11,CCTGATGC,-0.132
12,AACCCATT,-0.0681
13,ACGGCTAG,0.128
14,CGGCCAGA,-0.234
15,ACTGTATG,-0.184
16,CGGCTAAG,0.0162
17,CTCGAGGC,-0.193
18,AAAGCTAG,-0.236
19,CCGGCACG,0.0164
20,GGGTCCCA,-0.247
21,CCCCGCAG,-0.24
22,ACGAAAAA,0.216
23,CCTCTATA,-0.0605
24,ATATGAGG,-0.0942
25,ATTGTCGC,0.192

# Some values from the list:
# PBM E-score with AAAGCTAG reads -0.236
# PBM E-score with GGGATCCA reads -0.048

# (listing goes on)

row,Sequence,PBM E-score
1,CGCGCGTC,0.176
2,CGCAGCGA,-0.00716
3,CGCAGGCC,-0.238
4,GAAACGGA,0.129
5,CGAAGCCC,-0.0776
6,GGCCACAA,0.0114
7,AAGCAGTG,-0.148
8,GGAGCTGA,-0.0921
9,ACTGCTCC,-0.186
10,AGTCGGGC,0.0518
11,CTAAGCTA,0.0948
12,AAGTCACC,0.227
13,CTTCCTCC,-0.272
14,AGGTTCAG,-0.113
15,CTTAAAAA,-0.0302
16,AACGCGTG,0.0355
17,AGAATTAT,0.111
18,ACGTCGGA,0.135
19,ACAGCTGA,-0.122
20,ACCAACCC,-0.0362
21,CTGTGCCA,-0.235
22,CGCTCCCG,0.00583
23,CATGGACG,0.108
24,CGCGCCGC,-0.0824
25,CTGAACAA,0.177

row,Sequence,PBM E-score
1,CTTAGATC,0.0595
2,CGAAATCG,0.0686
3,AAATCAGG,0.0156
4,CCAGAGGA,-0.0426
5,ACACGAGG,0.112
6,CCGAACGC,0.0384
7,GATGGTCA,-0.087
8,AAGGGTAA,-0.0936
9,GAATGGAA,0.0821
10,GGATCGGA,-0.264
11,TGCAAGAA,0.0333
12,CCTCCGAG,-0.285
13,CGTGGCGC,0.0526
14,GCGGGACA,-0.11
15,AGTTACAT,-0.00081
16,CTGCTAAA,0.0279
17,AGATGGTA,-0.0549
18,CAAGGGAC,-0.247
19,CACGGGTA,-0.00472
20,ATATCACA,0.282
21,AAACGTAA,0.0327
22,TATTCAGA,0.182
